Measured values taken from US4310660A, “Lincomycin compounds” (The Upjohn Company, priority 1980, dated 1982).
≈ marks a conversion by molar mass, not a printed value. Read-outs that look alike come from different tables or passages of the source.

How the values were obtained:
S. aureus = experiment: Mouse Protection Test; type: in vivo; conditions: Staphylococcus aureus, 168 h, read-out: CD50 (median protective dose)
From the text: (§1) Immediately before use, the suspensions were thawed quickly and properly diluted. Infection was via the intrapertioneal route.
(§2) Treatment of the infected groups was begun immediately and continued once per day for 4 days (first 24 hr period=1). Groups of untreated mice served as virulence controls for the culture.
(§3) Seven days after the treatment regimen was begun the surviving animals were sacrificed and the median protective dose of the antibiotic calculated on the basis of mortality rates in the treatment groups. The median protective dose and its 95% confidence interval were calculated according to the method of Spearmen & Karber as programmed on a 360 digital computer.

K. pneumoniae = experiment: Mouse Protection Test; type: in vivo; conditions: Klebsiella pneumoniae, 168 h; route not given; once per day for 4 days; read-out: CD50 (median protective dose)
From the text: as §1, §2, §3

S. hemolyticus = experiment: Mouse Protection Test; type: in vivo; conditions: once per day for 4 days, 95% confidence interval; for ED50: 168 h, read-out: CD50 (median protective dose)
From the text: as §1, §2, §3

Staphylococcus aureus = experiment: MIC vs. aerobic bacteria, microplate broth-dilution (BHI); type: cell-based
Diplococcus pneumoniae = experiment: as above; type: cell-based; conditions: Streptococcus pneumoniae, read-out: Minimal Inhibitory Concentration (MIC)
Experimental: (§4) The Minimal Inhibitory Concentration (MIC's) of both compounds Vs. aerobic bacteria is determined using a standard microplate broth-dilution method. Brain Heart Infusion (BHI-Difco) broth medium is used, and the plates are incubated at 37° C. for 20 hrs.

Streptococcus viridans = experiment: as above; type: cell-based
Experimental: as §4

Proteus vulgaris = experiment: as above; type: cell-based; conditions: UC93, UC 93, read-out: Minimal Inhibitory Concentration (MIC)
Experimental: as §4

Pseudomonas aeruginosa = experiment: as above; type: cell-based; conditions: UC95, UC 95, read-out: Minimal Inhibitory Concentration (MIC)
Experimental: as §4

[1] = system: Staphylococcus epidermidis; experiment: as above; type: cell-based
Experimental: as §4

Klebsiella pneumoniae = experiment: as above; type: cell-based; conditions: UC58, UC 58, read-out: Minimal Inhibitory Concentration (MIC)
Experimental: as §4

Escherichia coli = experiment: as above; type: cell-based; conditions: UC45, UC 45, read-out: Minimal Inhibitory Concentration (MIC)
Experimental: as §4

[2] = system: Salmonella schottmuelleri; experiment: as above; type: cell-based; conditions: UC126, read-out: Minimal Inhibitory Concentration (MIC), UC 126
Experimental: as §4

Streptococcus pyogenes = experiment: as above; type: cell-based; conditions: UC152, UC 152, read-out: Minimal Inhibitory Concentration (MIC)
Experimental: as §4

Which ED50 (S. aureus; oral, once per day for 4 days, 95% confidence interval) does the source give for `CCC[C@@H]1C[C@@H](C(=O)N[C@@H]([C@H]2O[C@H](SC)[C@H](O)[C@@H](O)[C@H]2O)[C@H](C)Cl)N(C)C1` [Clindamycin, reference compound] here?
The ED50 was 12.3 mg/kg.

And the ED50 (S. aureus; sc)?
The ED50 was 5.7 mg/kg.

And the ED50 (K. pneumoniae)?
Its ED50 is > 320 mg/kg.

And the ED50 (S. hemolyticus; po, oral)?
Its ED50 is 12.3 mg/kg.

And the ED50 (S. hemolyticus; sc, subcut., two experiments listed)?
Its ED50 is 2.3 mg/kg.

And the “CD50 (median protective dose)” value (S. hemolyticus; subcut., two experiments listed, 10080 min)?
The value was 3.3(2.6-4.2) mg/kg.

What about the MIC (Staphylococcus aureus; UC76, S. aureus UC 76, read-out: Minimal Inhibitory Concentration (MIC)) of the same molecule?
Its MIC is 0.05 µg/mL (≈ 0.118 µM).

What about the MIC (Staphylococcus aureus; UC570, S. aureus UC 570, read-out: Minimal Inhibitory Concentration (MIC)) of the same molecule?
The MIC was 0.2 µg/mL (≈ 0.471 µM).

And the MIC (Staphylococcus aureus; UC571, S. aureus UC 571, read-out: Minimal Inhibitory Concentration (MIC))?
The MIC was 0.2 µg/mL (≈ 0.471 µM).

What about the MIC (Staphylococcus aureus; UC746, S. aureus UC 746, read-out: Minimal Inhibitory Concentration (MIC)) of the same molecule?
Its MIC is < 0.05 µg/mL.

And the MIC (Staphylococcus aureus; UC6675, S. aureus UC 6675, read-out: Minimal Inhibitory Concentration (MIC))?
The MIC was 0.05 µg/mL (≈ 0.118 µM).

And the MIC (Staphylococcus aureus; UC6685, S. aureus UC 6685, read-out: Minimal Inhibitory Concentration (MIC))?
Its MIC is > 25 µg/mL.

What about the MIC (Staphylococcus aureus; UC6686, S. aureus UC 6686, read-out: Minimal Inhibitory Concentration (MIC)) of the same molecule?
The MIC was 0.05 µg/mL (≈ 0.118 µM).

And the MIC (Staphylococcus aureus; UC6688, S. aureus UC 6688, read-out: Minimal Inhibitory Concentration (MIC))?
The MIC was > 25 µg/mL.

And the MIC (Staphylococcus aureus; UC6689, S. aureus UC 6689, read-out: Minimal Inhibitory Concentration (MIC))?
Its MIC is 0.05 µg/mL (≈ 0.118 µM).

What about the MIC (Staphylococcus aureus; UC6691, S. aureus UC 6691, read-out: Minimal Inhibitory Concentration (MIC)) of the same molecule?
Its MIC is 0.1 µg/mL (≈ 0.235 µM).

And the MIC (Staphylococcus aureus; UC6692, S. aureus UC 6692, read-out: Minimal Inhibitory Concentration (MIC))?
The MIC was > 25 µg/mL.

And the MIC (Staphylococcus aureus; UC6693, S. aureus UC 6693, read-out: Minimal Inhibitory Concentration (MIC))?
Its MIC is 0.05 µg/mL (≈ 0.118 µM).

What about the MIC (Staphylococcus aureus; UC6694, S. aureus UC 6694, read-out: Minimal Inhibitory Concentration (MIC)) of the same molecule?
Its MIC is > 25 µg/mL.

And the MIC (Staphylococcus aureus; UC6695, S. aureus UC 6695, read-out: Minimal Inhibitory Concentration (MIC))?
Its MIC is 0.1 µg/mL (≈ 0.235 µM).

And the MIC (Staphylococcus aureus; UC6696, S. aureus UC 6696, read-out: Minimal Inhibitory Concentration (MIC))?
Its MIC is 0.1 µg/mL (≈ 0.235 µM).

What about the MIC (Diplococcus pneumoniae; UC41, Diplococcus pneumoniae I, UC 41) of the same molecule?
Its MIC is ≤ 0.012 µg/mL.

And the MIC (Diplococcus pneumoniae; UC3213, Diplococcus pneumoniae II, UC 3213)?
Its MIC is ≤ 0.012 µg/mL.

And the MIC (Streptococcus viridans; UC153, UC 153, read-out: Minimal Inhibitory Concentration (MIC))?
The MIC was ≤ 0.012 µg/mL.

What about the MIC (Streptococcus viridans; UC871, UC 871, read-out: Minimal Inhibitory Concentration (MIC)) of the same molecule?
The MIC was ≤ 0.012 µg/mL.

What about the MIC (Proteus vulgaris) of the same molecule?
Its MIC is > 50 µg/mL.

What about the MIC (Pseudomonas aeruginosa) of the same molecule?
The MIC was > 50 µg/mL.

And the MIC ([1]; UC719, UC 719, read-out: Minimal Inhibitory Concentration (MIC))?
The MIC was 0.1 µg/mL (≈ 0.235 µM).

What about the MIC ([1]; UC3389, UC 3389, read-out: Minimal Inhibitory Concentration (MIC)) of the same molecule?
Its MIC is 0.1 µg/mL (≈ 0.235 µM).

And the MIC (Klebsiella pneumoniae)?
The MIC was 6.25 µg/mL (≈ 14.7 µM).

And the MIC (Escherichia coli)?
The MIC was 50 µg/mL (≈ 118 µM).

And the MIC [2]?
Its MIC is > 50 µg/mL.

And the MIC (Streptococcus pyogenes)?
The MIC was ≤ 0.012 µg/mL.
